# From the supplement of paper PMC8728848
# This is one part of the list.
# B1: PX9961M-bvu-482-23-482 (Bacteroides vulgatus) (protein)
# chain: WLDLAPSTQVDTETSINVLSDIEFTLNGIYSTMQSSDAYSGRLVYYGDVTGDDMQAVSSTKRTGNYYRFNFTKDNGPSSHWSYLYSIIQNCNLILMNVDKLSIDEDETEYKNDLKGQALAIRGMALFDLTRIFGYPYLKDNGASLGVPIVKELSTIDSKPARNTVAECYTEIISDLKNSTELLSGDFNKGKVNRWAAMTLLSRVYLYKGEYNEALTMAENAIKGAEKEGYALWTNEEYPTAWGNDASASNPGEILFEIVNLTTDSPGKESMGYLNSYNGYDDMCITCSFYQLLKKDPKDVRLKILSFDKKYYAYVNKYQPQQGENITDANIPLIRLSEAYLNAAEAAVQTGDNAKAVKYLNSIVQRANPENSVEGKTLTLENVLDERRKELVAEGHRMYDVIRNGMTVKRIDVKDSDINKTKHNTAYMEYDWNFHKILLPIPKKEMDANPNMKQNPGYVD
# Experiments:
# Assay in all cases: glycan array binding signal (z-score within array); higher = stronger binding
# Details in all cases: glycan notation: IUPAC condensed, linker removed
# [1] = target: Gal(a1-3)[Gal(a1-4)]Gal(b1-4)GlcNAc
# Summary of the method: (§1)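 Glycan array data came from 3228 arrays in the Consortium for Functional Glycomics database, and only arrays with an available protein sequence were kept. Glycan names were put into IUPAC-condensed notation, and columns mapping to the same glycan were averaged. The binding signal is a within-array Z-score, averaged across arrays of one protein sequence run at different concentrations or buffers and across linkers. A negative Z-score can be read as non-binding.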
# [2] = target: Gal(a1-4)Gal(b1-3)GlcNAc(b1-2)Man(a1-3)[Gal(a1-4)Gal(b1-3)GlcNAc(b1-2)Man(a1-6)]Man(b1-4)GlcNAc(b1-4)GlcNAc
# Summary of the method: as §1
# Gal(a1-4)Gal(b1-4)Glc = target: Gal(a1-4)Gal(b1-4)Glc
# Summary of the method: as §1
# Gal(a1-4)Gal(b1-4)GlcNAc = target: Gal(a1-4)Gal(b1-4)GlcNAc
# Summary of the method: as §1
# [3] = target: Gal(a1-4)Gal(b1-4)GlcNAc(b1-2)Man(a1-3)[Gal(a1-4)Gal(b1-4)GlcNAc(b1-2)Man(a1-6)]Man(b1-4)GlcNAc(b1-4)GlcNAc
# Summary of the method: as §1
# [4] = target: Gal(a1-4)Gal(b1-4)GlcNAc(b1-3)Gal(b1-4)Glc
# Summary of the method: as §1
# Gal(a1-4)GlcNAc = target: Gal(a1-4)GlcNAc
# Summary of the method: as §1
# Gal(a1-6)Glc = target: Gal(a1-6)Glc
# Summary of the method: as §1
# Gal(b1-2)Gal = target: Gal(b1-2)Gal
# Summary of the method: as §1
# Gal(b1-3)Gal = target: Gal(b1-3)Gal
# Summary of the method: as §1
# Gal(b1-3)Gal(b1-4)GlcNAc = target: Gal(b1-3)Gal(b1-4)GlcNAc
# Summary of the method: as §1
# Gal(b1-3)GalNAc = target: Gal(b1-3)GalNAc
# Summary of the method: as §1
# [5] = target: Gal(b1-3)GalNAc(a1-3)[Fuc(a1-2)]Gal(b1-4)Glc
# Summary of the method: as §1
# [6] = target: Gal(b1-3)GalNAc(a1-3)[Fuc(a1-2)]Gal(b1-4)GlcNAc
# Summary of the method: as §1
# Gal(b1-3)GalNAc(b1-3)Gal = target: Gal(b1-3)GalNAc(b1-3)Gal
# Summary of the method: as §1
# [7] = target: Gal(b1-3)GalNAc(b1-3)Gal(a1-4)Gal(b1-4)Glc
# Summary of the method: as §1
# [8] = target: Gal(b1-3)GalNAc(b1-4)Gal(b1-4)Glc
# Summary of the method: as §1
# [9] = target: Gal(b1-3)GalNAc(b1-4)[Neu5Ac(a2-3)]Gal(b1-4)Glc
# Summary of the method: as §1
# Gal(b1-3)GlcNAc = target: Gal(b1-3)GlcNAc
# Summary of the method: as §1
# [10] = target: Gal(b1-3)GlcNAc(a1-3)Gal(b1-4)GlcNAc
# Summary of the method: as §1
# [11] = target: Gal(b1-3)GlcNAc(a1-6)Gal(b1-4)GlcNAc
# Summary of the method: as §1
# Gal(b1-3)GlcNAc(b1-2)Man = target: Gal(b1-3)GlcNAc(b1-2)Man
# Summary of the method: as §1
# [12] = target: Gal(b1-3)GlcNAc(b1-2)Man(a1-3)[Gal(b1-3)GlcNAc(b1-2)Man(a1-6)]Man(b1-4)GlcNAc(b1-4)GlcNAc
# Summary of the method: as §1
# [13] = target: Gal(b1-3)GlcNAc(b1-2)Man(a1-3)[Gal(b1-3)GlcNAc(b1-2)Man(a1-6)]Man(b1-4)GlcNAc(b1-4)[Fuc(a1-6)]GlcNAc
# Summary of the method: as §1
# [14] = target: Gal(b1-3)GlcNAc(b1-2)Man(a1-3)[GlcNAc(b1-4)][Gal(b1-3)GlcNAc(b1-2)Man(a1-6)]Man(b1-4)GlcNAc(b1-4)GlcNAc
# Summary of the method: as §1
# [15] = target: Gal(b1-3)GlcNAc(b1-2)[Gal(b1-3)GlcNAc(b1-6)]Man(a1-6)[Gal(b1-3)GlcNAc(b1-2)Man(a1-3)]Man(b1-4)GlcNAc(b1-4)GlcNAc
# Summary of the method: as §1
# [16] = target: Gal(b1-3)GlcNAc(b1-3)Gal(b1-3)GlcNAc
# Summary of the method: as §1
# [17] = target: Gal(b1-3)GlcNAc(b1-3)Gal(b1-4)Glc
# Summary of the method: as §1
# [18] = target: Gal(b1-3)GlcNAc(b1-3)Gal(b1-4)GlcNAc
# Summary of the method: as §1
# [19] = target: Gal(b1-3)GlcNAc(b1-3)Gal(b1-4)GlcNAc(b1-2)Man(a1-3)[Gal(b1-3)GlcNAc(b1-3)Gal(b1-4)GlcNAc(b1-2)Man(a1-6)]Man(b1-4)GlcNAc(b1-4)GlcNAc
# Summary of the method: as §1
# [20] = target: Gal(b1-3)GlcNAc(b1-3)Gal(b1-4)GlcNAc(b1-2)[Gal(b1-3)GlcNAc(b1-3)Gal(b1-4)GlcNAc(b1-6)]Man(a1-6)[Gal(b1-3)GlcNAc(b1-3)Gal(b1-4)GlcNAc(b1-2)Man(a1-3)]Man(b1-4)GlcNAc(b1-4)[Fuc(a1-6)]GlcNAc
# Summary of the method: as §1
# [21] = target: Gal(b1-3)GlcNAc(b1-3)Gal(b1-4)GlcNAc(b1-3)Gal(b1-4)GlcNAc(b1-2)[Gal(b1-3)GlcNAc(b1-3)Gal(b1-4)GlcNAc(b1-3)Gal(b1-4)GlcNAc(b1-6)]Man(a1-6)[Gal(b1-3)GlcNAc(b1-3)Gal(b1-4)GlcNAc(b1-3)Gal(b1-4)GlcNAc(b1-2)Man(a1-3)]Man(b1-4)GlcNAc(b1-4)[Fuc(a1-6)]GlcNAc
# Summary of the method: as §1
# [22] = target: Gal(b1-3)GlcNAc(b1-3)Gal(b1-4)GlcNAc(b1-6)[Gal(b1-3)GlcNAc(b1-3)]Gal(b1-4)Glc
# Summary of the method: as §1
# [23] = target: Gal(b1-3)GlcNAc(b1-3)Gal(b1-4)[Fuc(a1-3)]GlcNAc
# Summary of the method: as §1
# [24] = target: Gal(b1-3)GlcNAc(b1-3)Gal(b1-4)[Fuc(a1-3)]GlcNAc(b1-6)[Gal(b1-3)GlcNAc(b1-3)]Gal(b1-4)Glc
# Summary of the method: as §1
# [25] = target: Gal(b1-3)GlcNAc(b1-3)GalNAc
# Summary of the method: as §1
# [26] = target: Gal(b1-3)GlcNAc(b1-6)Gal(b1-4)GlcNAc
# Summary of the method: as §1
# [27] = target: Gal(b1-3)GlcNAc(b1-6)GalNAc
# Summary of the method: as §1
binder,measurement,setting,value
B1,glycan array binding signal (z-score),[1],4.04
same,glycan array binding signal (z-score),[2],1.92
same,glycan array binding signal (z-score),Gal(a1-4)Gal(b1-4)Glc,0.06
same,glycan array binding signal (z-score),Gal(a1-4)Gal(b1-4)GlcNAc,0.359
same,glycan array binding signal (z-score),[3],0.779
same,glycan array binding signal (z-score),[4],0.792
same,glycan array binding signal (z-score),Gal(a1-4)GlcNAc,-0.763
same,glycan array binding signal (z-score),Gal(a1-6)Glc,-0.463
same,glycan array binding signal (z-score),Gal(b1-2)Gal,-0.222
same,glycan array binding signal (z-score),Gal(b1-3)Gal,-0.752
same,glycan array binding signal (z-score),Gal(b1-3)Gal(b1-4)GlcNAc,0.465
same,glycan array binding signal (z-score),Gal(b1-3)GalNAc,-0.079
same,glycan array binding signal (z-score),[5],-0.056
same,glycan array binding signal (z-score),[6],-0.159
same,glycan array binding signal (z-score),Gal(b1-3)GalNAc(b1-3)Gal,0.02
same,glycan array binding signal (z-score),[7],0.164
same,glycan array binding signal (z-score),[8],0.105
same,glycan array binding signal (z-score),[9],-0.739
same,glycan array binding signal (z-score),Gal(b1-3)GlcNAc,-0.648
same,glycan array binding signal (z-score),[10],0.146
same,glycan array binding signal (z-score),[11],-1.01
same,glycan array binding signal (z-score),Gal(b1-3)GlcNAc(b1-2)Man,-0.302
same,glycan array binding signal (z-score),[12],1.18
same,glycan array binding signal (z-score),[13],-0.075
same,glycan array binding signal (z-score),[14],-0.064
same,glycan array binding signal (z-score),[15],-0.579
same,glycan array binding signal (z-score),[16],-1.04
same,glycan array binding signal (z-score),[17],-0.532
same,glycan array binding signal (z-score),[18],-0.294
same,glycan array binding signal (z-score),[19],0.191
same,glycan array binding signal (z-score),[20],0.461
same,glycan array binding signal (z-score),[21],1.05
same,glycan array binding signal (z-score),[22],-0.033
same,glycan array binding signal (z-score),[23],-0.31
same,glycan array binding signal (z-score),[24],-0.118
same,glycan array binding signal (z-score),[25],-1.23
same,glycan array binding signal (z-score),[26],-0.801
same,glycan array binding signal (z-score),[27],-0.222

# Fetched one by one from above (two):
binder,measurement,setting,value
B1,glycan array binding signal (z-score),[18],-0.294
same,glycan array binding signal (z-score),Gal(b1-3)Gal(b1-4)GlcNAc,0.465
